Measured data: PubChem BioAssay AID504804 (Drosophila RNAi Screening Center, 2011)

Test: 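Fly genes whose loss lessens doxorubicin-driven cell death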 (primary screen)
System: Drosophila Kc cells
Reagent: long dsRNA against Drosophila genes, 0.5 µg dsRNA per well
Time to read-out: 96 h (48 h knock-down, then 48 h drug)
Conditions: doxorubicin 5 µg/ml for 48 h, added 48 h after dsRNA
Detection: 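Viability measured as cellular ATP by luminescence after 48 h knock-down then 48 h doxorubicin at 5 µg/ml; unnormalised plate counts for each replicate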
Reading the numbers: raw ATP luminescence: higher = more viable cells, protection from doxorubicin
Hit rule: 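z-score of 2 or more over plate mean in both duplicates, retained only when retests and separate dsRNAs confirm the protection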
In all, the deposit lists about 19,000 reagents; shown is an unselected part of those with a known target gene and a result. Over the whole deposit, 47 (0.25%) are marked active. 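Signals are raw, not normalised; exact z-scores behind calls not deposited; actives needed confirmation, so some wells reaching 2 SD are inactive.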 A number with no mark means an inactive call. The numbers tell different reagents against one gene apart.

Idh3g (GeneID 43102) | raw ATP luminescence, replicate 1 = 53550; raw ATP luminescence, replicate 2 = 45120
Mesh1 (GeneID 43456) | raw ATP luminescence, replicate 1 = 28930; raw ATP luminescence, replicate 2 = 39960
CG4641 (retired record) (GeneID 39053) | raw ATP luminescence, replicate 1 = 41583; raw ATP luminescence, replicate 2 = 34530
mRpS34 (GeneID 39809) | raw ATP luminescence, replicate 1 = 49583; raw ATP luminescence, replicate 2 = 42840
CG15211 (GeneID 32006) | raw ATP luminescence, replicate 1 = 3.43e5; raw ATP luminescence, replicate 2 = 3.35e5
ND-24L (GeneID 39926) | raw ATP luminescence, replicate 1 = 35323; raw ATP luminescence, replicate 2 = 29257
Gr28a (GeneID 117348) | raw ATP luminescence, replicate 1 = 27803; raw ATP luminescence, replicate 2 = 40117
CG31156 (GeneID 42669) #1 | raw ATP luminescence, replicate 1 = 42893; raw ATP luminescence, replicate 2 = 53543
CG31156 (GeneID 42669) #2 | raw ATP luminescence, replicate 1 = 76260; raw ATP luminescence, replicate 2 = 70870
Nop56 (GeneID 42633) | raw ATP luminescence, replicate 1 = 44787; raw ATP luminescence, replicate 2 = 38423
Abd-B (GeneID 47763) #1 | raw ATP luminescence, replicate 1 = 78990; raw ATP luminescence, replicate 2 = 70200
Abd-B (GeneID 47763) #2 | raw ATP luminescence, replicate 1 = 69820; raw ATP luminescence, replicate 2 = 64820
CG7744 (GeneID 37239) | raw ATP luminescence, replicate 1 = 71353; raw ATP luminescence, replicate 2 = 81413
CG10237 (GeneID 35222) | raw ATP luminescence, replicate 1 = 86750; raw ATP luminescence, replicate 2 = 65183
koi (GeneID 35594) | raw ATP luminescence, replicate 1 = 44860; raw ATP luminescence, replicate 2 = 77523
sage (GeneID 41105) | raw ATP luminescence, replicate 1 = 1.68e5; raw ATP luminescence, replicate 2 = 1.73e5
Mgtor (GeneID 36264) | raw ATP luminescence, replicate 1 = 48863; raw ATP luminescence, replicate 2 = 59193
eIF3f2 (GeneID 35547) | raw ATP luminescence, replicate 1 = 46460; raw ATP luminescence, replicate 2 = 53200
Herp (GeneID 34065) | raw ATP luminescence, replicate 1 = 1.08e5; raw ATP luminescence, replicate 2 = 65750
dgo (GeneID 36139) | raw ATP luminescence, replicate 1 = 81620; raw ATP luminescence, replicate 2 = 69373
CG5860 (GeneID 42095) | raw ATP luminescence, replicate 1 = 61360; raw ATP luminescence, replicate 2 = 72460

6 entries already listed, sorted by “raw ATP luminescence, replicate 2”, descending.
sage (GeneID 41105) | raw ATP luminescence, replicate 1 = 1.68e5; raw ATP luminescence, replicate 2 = 1.73e5
CG7744 (GeneID 37239) | raw ATP luminescence, replicate 1 = 71353; raw ATP luminescence, replicate 2 = 81413
koi (GeneID 35594) | raw ATP luminescence, replicate 1 = 44860; raw ATP luminescence, replicate 2 = 77523
Abd-B (GeneID 47763) #1 | raw ATP luminescence, replicate 1 = 78990; raw ATP luminescence, replicate 2 = 70200
CG10237 (GeneID 35222) | raw ATP luminescence, replicate 1 = 86750; raw ATP luminescence, replicate 2 = 65183
Abd-B (GeneID 47763) #2 | raw ATP luminescence, replicate 1 = 69820; raw ATP luminescence, replicate 2 = 64820

The list goes on.
CG16820 (GeneID 34730) | raw ATP luminescence, replicate 1 = 99443; raw ATP luminescence, replicate 2 = 71567
CG17168 (GeneID 3354996) | raw ATP luminescence, replicate 1 = 2.48e5; raw ATP luminescence, replicate 2 = 2.58e5
CG12448 (GeneID 34942) | raw ATP luminescence, replicate 1 = 65600; raw ATP luminescence, replicate 2 = 74803
SCAR (GeneID 34519) | raw ATP luminescence, replicate 1 = 46340; raw ATP luminescence, replicate 2 = 89977
CG16798 (GeneID 35308) | raw ATP luminescence, replicate 1 = 43597; raw ATP luminescence, replicate 2 = 58097
Nuf2 (GeneID 33992) | raw ATP luminescence, replicate 1 = 1.10e5; raw ATP luminescence, replicate 2 = 66320
strat (GeneID 34142) | raw ATP luminescence, replicate 1 = 35580; raw ATP luminescence, replicate 2 = 64987
CG15043 (GeneID 32835) | raw ATP luminescence, replicate 1 = 2.61e5; raw ATP luminescence, replicate 2 = 2.60e5
CG13086 (GeneID 35208) | raw ATP luminescence, replicate 1 = 52067; raw ATP luminescence, replicate 2 = 54757
Sptz (GeneID 41370) | raw ATP luminescence, replicate 1 = 44910; raw ATP luminescence, replicate 2 = 58153
PGAP5 (GeneID 34116) | raw ATP luminescence, replicate 1 = 51103; raw ATP luminescence, replicate 2 = 65527
mad2 (GeneID 38656) | raw ATP luminescence, replicate 1 = 75720; raw ATP luminescence, replicate 2 = 79583
pho (GeneID 43819) | raw ATP luminescence, replicate 1 = 48880; raw ATP luminescence, replicate 2 = 47290
ZAP3 (GeneID 31942) #1 | raw ATP luminescence, replicate 1 = 3.91e5; raw ATP luminescence, replicate 2 = 3.90e5
ZAP3 (GeneID 31942) #2 | raw ATP luminescence, replicate 1 = 3.45e5; raw ATP luminescence, replicate 2 = 3.37e5
